This passage reports binding results from PMC7866390, “A Novel Multiprotein Bridging Factor 1-Like Protein Induces Cyst Wall Protein Gene Expression and Cyst Differentiation in Giardia lamblia”.

Amino acid sequences for entries named in this document (tags omitted). A change or cut given only in a name is not applied to a line headed by its entry.
UniProt Q86R88: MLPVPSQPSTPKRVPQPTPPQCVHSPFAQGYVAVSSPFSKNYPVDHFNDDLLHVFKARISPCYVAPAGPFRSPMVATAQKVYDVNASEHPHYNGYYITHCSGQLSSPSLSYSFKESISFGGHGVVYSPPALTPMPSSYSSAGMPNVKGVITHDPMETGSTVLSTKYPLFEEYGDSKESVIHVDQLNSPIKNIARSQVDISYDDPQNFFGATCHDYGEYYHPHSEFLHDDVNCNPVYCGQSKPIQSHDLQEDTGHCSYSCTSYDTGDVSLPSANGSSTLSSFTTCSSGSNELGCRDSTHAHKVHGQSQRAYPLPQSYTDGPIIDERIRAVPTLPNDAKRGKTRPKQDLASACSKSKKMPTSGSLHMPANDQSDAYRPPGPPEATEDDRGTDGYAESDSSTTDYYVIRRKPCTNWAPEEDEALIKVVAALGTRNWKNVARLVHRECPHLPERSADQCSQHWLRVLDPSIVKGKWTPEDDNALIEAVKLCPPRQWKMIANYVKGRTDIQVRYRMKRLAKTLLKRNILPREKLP
UniProt A8BZ03: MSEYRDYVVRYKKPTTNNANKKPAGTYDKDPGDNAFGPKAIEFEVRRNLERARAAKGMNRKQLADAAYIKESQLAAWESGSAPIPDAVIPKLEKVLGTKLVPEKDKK

No constants are given. Whether binding was seen depends on the method and setting. In cells and extracts the contact can be indirect. Binding can be weak; no strength is given.

Test [1] addresses Giardia lamblia Myb2 transcription factor, endogenous (Giardia lamblia (endogenous in WB clone C6)) (UniProt Q86R88). Briefly: co-IP; reciprocal immunoprecipitation: lysates of stable transfectants cultured in encystation medium for 24 h; 2 μg anti-MBF1 antibody (anti-Myb2 for the Myb2 pair) or preimmune serum for 2 h, then protein G plus/protein A-agarose for 1 h; Western blot with anti-HA.

For test [2], the target named is HA-tagged MBF1 protein of Giardia lamblia (Giardia lamblia) (UniProt A8BZ03). Briefly: co-IP; lysates of stable transfectants cultured in encystation medium for 24 h; anti-HA antibody conjugated to beads; Western blot with anti-HA, anti-MBF1 or anti-Myb2, and anti-ISCS; control cell line 5'Δ5N-Pac.

On to “HA-tagged MBF1 protein of Giardia lamblia (from UniProt A8BZ03)”, for which, in test [1], the binding entry is on record as “binds”.

As for “Giardia lamblia Myb2 transcription factor, endogenous (from UniProt Q86R88)”, the binding result in test [2] is reported as “binds”.
